Values from PubChem BioAssay AID1259308 (NCATS, 2017).
Purpose: 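Knock-downs that increase output of a recombinant reporter protein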 (primary screen). Cells: human HEK293 embryonic kidney cells stably expressing firefly luciferase (HEK-CMV-Luc2-Hygro). Reagent: single siRNA against human genes, 0.8 pmol siRNA per well. Time to read-out: 72 h. Measured: 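Reporter luminescence and viable-cell signal on separate replicate plates, given as percent of non-targeting control and median/MAD z-scores, plus per-cell luciferase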. Scale: total luciferase, z-score and total luciferase, % of control: higher = more reporter protein produced; luciferase per cell, z-score: higher = more reporter output per viable cell; viable cells, % of control: higher = more viable cells. Hit rule: 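Active when the median/MAD z-score for overall luciferase is greater than 3; a gene was taken forward for validation with new siRNAs if at least two of its three siRNAs passed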. Calls: active = raised luciferase; inactive = no rise.
Shown is an unselected part of about 59,000 reagents. Over the whole deposit, about 1,510 (2.6%) were called active. 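Calls use total luciferase alone and ignore viability, so some active siRNAs may act by altering cell number.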 Reagents against one gene are numbered here.

| target gene | reagent | total luciferase, z-score | total luciferase, % of control | luciferase per cell, z-score | viable cells, % of control | call |
| --- | --- | --- | --- | --- | --- | --- |
| MARCHF5 (membrane associated ring-CH-type finger 5) | 1 | -0.535 | 71.3 | -0.701 | 95.8 | inactive |
| MARCHF5 (membrane associated ring-CH-type finger 5) | 2 | -0.264 | 76.6 | -0.187 | 89.9 | inactive |
| MARCHF5 (membrane associated ring-CH-type finger 5) | 3 | -0.392 | 74.1 | -0.772 | 101 | inactive |
| UNC5D (unc-5 netrin receptor D) | 1 | -0.878 | 64.4 | -0.737 | 87.4 | inactive |
| UNC5D (unc-5 netrin receptor D) | 2 | -0.343 | 75.1 | -0.117 | 86.5 | inactive |
| UNC5D (unc-5 netrin receptor D) | 3 | 0.311 | 88.1 | 1.67 | 63.3 | inactive |
| ZNF629 (zinc finger protein 629) | 1 | -0.308 | 75.8 | -0.133 | 87.7 | inactive |
| ZNF629 (zinc finger protein 629) | 2 | -0.681 | 68.3 | -0.282 | 82.3 | inactive |
| ZNF629 (zinc finger protein 629) | 3 | 0.341 | 88.7 | 0.443 | 88.2 | inactive |
| PLCG2 (phospholipase C gamma 2) | 1 | -1.59 | 50.3 | -1.62 | 86.1 | inactive |
| PLCG2 (phospholipase C gamma 2) | 2 | -0.228 | 77.3 | -0.587 | 101 | inactive |
| PLCG2 (phospholipase C gamma 2) | 3 | -0.0558 | 80.8 | -0.0145 | 90.6 | inactive |
| ZNF474 (zinc finger protein 474) | 1 | -1.82 | 45.7 | -1.95 | 85.3 | inactive |
| ZNF474 (zinc finger protein 474) | 2 | 0.309 | 88 | -0.299 | 106 | inactive |
| ZNF474 (zinc finger protein 474) | 3 | -1.03 | 61.5 | -1.13 | 92.5 | inactive |
| DCANP1 (dendritic cell associated nuclear protein 1) | 1 | -0.216 | 77.6 | 0.0302 | 86 | inactive |
| DCANP1 (dendritic cell associated nuclear protein 1) | 2 | -0.449 | 73 | 0.177 | 77.8 | inactive |
| DCANP1 (dendritic cell associated nuclear protein 1) | 3 | 1.13 | 104 | 0.388 | 105 | inactive |
| GLYCTK (glycerate kinase) | 1 | 2.52 | 132 | 2.04 | 86.2 | inactive |
| GLYCTK (glycerate kinase) | 2 | 1.06 | 103 | 0.838 | 92.2 | inactive |
| GLYCTK (glycerate kinase) | 3 | 2.47 | 131 | 1.84 | 90.3 | inactive |
| GPS2 (G protein pathway suppressor 2) | 1 | -0.0587 | 80.7 | -0.62 | 106 | inactive |
| GPS2 (G protein pathway suppressor 2) | 2 | 1.25 | 107 | 1.3 | 84.6 | inactive |
| GPS2 (G protein pathway suppressor 2) | 3 | -0.82 | 65.6 | -0.999 | 95.3 | inactive |
| PIP (prolactin induced protein) | 1 | 0.667 | 95.2 | 0.323 | 97.7 | inactive |
| PIP (prolactin induced protein) | 2 | 1.79 | 117 | 1.94 | 78.9 | inactive |
| PIP (prolactin induced protein) | 3 | 0.277 | 87.4 | -0.722 | 118 | inactive |
| LRRC74BNL (LRRC74B N-terminal like) | 1 | -0.597 | 70 | -0.588 | 91.3 | inactive |
| LRRC74BNL (LRRC74B N-terminal like) | 2 | -0.438 | 73.2 | 0.265 | 76.2 | inactive |
| LRRC74BNL (LRRC74B N-terminal like) | 3 | 0.801 | 97.8 | -0.0746 | 111 | inactive |
| FAM170A (family with sequence similarity 170 member A) | 1 | -1.46 | 52.8 | -1.58 | 89.5 | inactive |
| FAM170A (family with sequence similarity 170 member A) | 2 | -0.281 | 76.3 | -0.305 | 92.4 | inactive |
| FAM170A (family with sequence similarity 170 member A) | 3 | -1.49 | 52.2 | -1.48 | 86.1 | inactive |
| TRIB2 (tribbles pseudokinase 2) | 1 | 1.32 | 108 | 2.17 | 68.3 | inactive |
| TRIB2 (tribbles pseudokinase 2) | 2 | 0.174 | 85.4 | -0.299 | 103 | inactive |
| TRIB2 (tribbles pseudokinase 2) | 3 | 0.474 | 91.3 | -0.0766 | 104 | inactive |
| KMT2C (lysine methyltransferase 2C) | 1 | -0.0657 | 80.6 | -0.244 | 96 | inactive |
| KMT2C (lysine methyltransferase 2C) | 2 | 0.285 | 87.6 | 0.735 | 80.6 | inactive |
| KMT2C (lysine methyltransferase 2C) | 3 | -0.106 | 79.8 | -0.072 | 90.8 | inactive |
| IGSF11 (immunoglobulin superfamily member 11) | 1 | -0.00193 | 81.8 | -0.81 | 113 | inactive |
| IGSF11 (immunoglobulin superfamily member 11) | 2 | -0.00462 | 81.8 | 0.0161 | 91 | inactive |
| IGSF11 (immunoglobulin superfamily member 11) | 3 | 1.38 | 109 | 1.69 | 78.3 | inactive |
| KRT18P8 (keratin 18 pseudogene 8) | 1 | -0.278 | 76.4 | -0.578 | 99.4 | inactive |
| KRT18P8 (keratin 18 pseudogene 8) | 2 | -0.32 | 75.5 | -1.05 | 111 | inactive |
| KRT18P8 (keratin 18 pseudogene 8) | 3 | 1.88 | 119 | 1.55 | 88.8 | inactive |
| POU4F1 (POU class 4 homeobox 1) | 1 | 0.582 | 93.5 | 1.28 | 74.6 | inactive |
| POU4F1 (POU class 4 homeobox 1) | 2 | 0.0736 | 83.4 | -0.23 | 98.9 | inactive |
| POU4F1 (POU class 4 homeobox 1) | 3 | 0.622 | 94.3 | 0.956 | 81.9 | inactive |
| SFXN4 (sideroflexin 4) | 1 | 0.44 | 90.6 | 0.637 | 85.6 | inactive |
| SFXN4 (sideroflexin 4) | 2 | -0.643 | 69.1 | -0.838 | 96.3 | inactive |
| SFXN4 (sideroflexin 4) | 3 | -0.61 | 69.8 | -0.746 | 94.9 | inactive |
| EXTL1 (exostosin like glycosyltransferase 1) | 1 | 0.289 | 87.6 | -0.18 | 103 | inactive |
| EXTL1 (exostosin like glycosyltransferase 1) | 2 | 1.14 | 105 | 0.546 | 101 | inactive |
| EXTL1 (exostosin like glycosyltransferase 1) | 3 | -2.09 | 40.3 | -3 | 99.2 | inactive |
| USP49 (ubiquitin specific peptidase 49) | 1 | 6.17 | 205 | 4.58 | 68.4 | active |
| USP49 (ubiquitin specific peptidase 49) | 2 | -0.859 | 64.8 | 0.238 | 68 | inactive |
| USP49 (ubiquitin specific peptidase 49) | 3 | 0.636 | 94.5 | 0.594 | 90.3 | inactive |
